This note sets out measurements from PMC11329700.

Protein sequences, listed by entry. Tags and fused reporters are not part of them. Residues count along the entry.
UniProt P21575, residues 746-864: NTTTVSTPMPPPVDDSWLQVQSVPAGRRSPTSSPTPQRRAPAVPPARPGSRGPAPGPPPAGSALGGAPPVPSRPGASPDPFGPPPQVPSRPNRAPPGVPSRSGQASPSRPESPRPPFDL
UniProt O35180: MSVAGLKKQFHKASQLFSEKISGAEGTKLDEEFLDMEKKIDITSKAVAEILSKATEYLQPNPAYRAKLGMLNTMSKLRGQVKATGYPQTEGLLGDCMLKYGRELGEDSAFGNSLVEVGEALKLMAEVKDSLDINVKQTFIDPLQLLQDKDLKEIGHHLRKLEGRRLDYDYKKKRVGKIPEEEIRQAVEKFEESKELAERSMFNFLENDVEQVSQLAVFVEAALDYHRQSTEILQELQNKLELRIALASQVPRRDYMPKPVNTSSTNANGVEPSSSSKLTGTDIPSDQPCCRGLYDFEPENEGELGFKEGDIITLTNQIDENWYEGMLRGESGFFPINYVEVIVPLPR

The target in this test is GST-Dyn1xA-PRR (dynamin 1xA proline-rich region, amino acids 746-864) (rat) (UniProt P21575). Briefly: affinity purification with mass spectrometry; 40 kDa band of the GST-Dyn1-PRR pull-down from rat brain synaptosomal lysate excised, digested with Lys-C/trypsin, LC-MS/MS and targeted SRM for Endophilin A1, A2, A3; only the target purified.

No constants are given. Whether binding was seen depends on the method and setting. In cells and extracts the contact can be indirect. These calls come from enrichment with a bait or labelling near it, and not all partners need be listed.

As to “Endophilin A3 (from UniProt O35180 1-347)”, the binding entry is reported as “binds”.
